Reference: article PMC4287435

Sequences of proteins named here, by UniProt entry; tags and fusion partners are left off. A change or cut given only in a name is not applied to a line headed by its entry.
UniProt Q9SJQ6: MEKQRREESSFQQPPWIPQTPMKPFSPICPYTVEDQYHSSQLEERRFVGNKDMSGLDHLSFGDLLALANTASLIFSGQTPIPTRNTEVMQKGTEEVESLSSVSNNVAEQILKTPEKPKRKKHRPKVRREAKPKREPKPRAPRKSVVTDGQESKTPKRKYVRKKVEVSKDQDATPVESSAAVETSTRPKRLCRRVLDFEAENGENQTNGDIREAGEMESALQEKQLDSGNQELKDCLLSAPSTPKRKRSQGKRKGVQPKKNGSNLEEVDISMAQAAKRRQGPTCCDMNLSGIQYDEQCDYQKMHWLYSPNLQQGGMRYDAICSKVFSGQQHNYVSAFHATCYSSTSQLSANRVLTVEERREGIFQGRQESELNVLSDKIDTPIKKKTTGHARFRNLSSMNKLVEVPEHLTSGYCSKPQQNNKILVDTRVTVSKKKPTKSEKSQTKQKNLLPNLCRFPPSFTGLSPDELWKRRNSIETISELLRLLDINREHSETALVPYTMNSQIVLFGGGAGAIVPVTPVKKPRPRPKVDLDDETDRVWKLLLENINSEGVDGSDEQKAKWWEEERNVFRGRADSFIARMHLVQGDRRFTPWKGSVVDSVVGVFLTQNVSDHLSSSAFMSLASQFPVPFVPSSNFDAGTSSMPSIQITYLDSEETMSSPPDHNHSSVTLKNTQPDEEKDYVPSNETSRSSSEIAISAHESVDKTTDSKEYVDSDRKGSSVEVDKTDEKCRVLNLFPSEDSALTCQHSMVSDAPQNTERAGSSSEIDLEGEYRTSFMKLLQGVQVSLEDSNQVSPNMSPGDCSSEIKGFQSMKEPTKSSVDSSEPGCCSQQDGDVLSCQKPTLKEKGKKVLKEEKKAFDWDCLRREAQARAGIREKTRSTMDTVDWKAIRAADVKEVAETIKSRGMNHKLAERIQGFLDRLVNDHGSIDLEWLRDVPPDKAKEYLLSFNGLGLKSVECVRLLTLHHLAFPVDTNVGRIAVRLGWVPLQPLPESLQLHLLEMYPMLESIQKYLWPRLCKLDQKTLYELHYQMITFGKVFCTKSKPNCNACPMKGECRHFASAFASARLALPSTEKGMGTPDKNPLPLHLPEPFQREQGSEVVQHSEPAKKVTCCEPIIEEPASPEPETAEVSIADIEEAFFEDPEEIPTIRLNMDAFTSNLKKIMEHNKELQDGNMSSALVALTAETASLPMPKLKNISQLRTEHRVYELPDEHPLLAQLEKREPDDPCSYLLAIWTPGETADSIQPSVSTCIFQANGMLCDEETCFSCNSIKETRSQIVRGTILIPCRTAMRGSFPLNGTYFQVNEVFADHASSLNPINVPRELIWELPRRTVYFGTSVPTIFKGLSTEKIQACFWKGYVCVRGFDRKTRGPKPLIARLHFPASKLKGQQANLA

What was measured:
[1] = molecular target: T1, MBP-APE1L (Arabidopsis thaliana) (UniProt Q5XF07); experiment: EMSA; details: MBP-APE1L alone, no stable complex, smeared band next to free probe; 3'-phosphate on S39; 5'-phosphate on S40; 10 mM Tris-HCl pH 8.0, 1 mM DTT, 10 ug/ml BSA; 15 min at 25 C; 10 nM DNA; 0.2% agarose gel in 1x TAE at room temperature; recombinant protein; residues 1-364; protein details: MBP (pMAL-c2X); label: 5' Alexa Fluor on S39
T1 sequence (looked up): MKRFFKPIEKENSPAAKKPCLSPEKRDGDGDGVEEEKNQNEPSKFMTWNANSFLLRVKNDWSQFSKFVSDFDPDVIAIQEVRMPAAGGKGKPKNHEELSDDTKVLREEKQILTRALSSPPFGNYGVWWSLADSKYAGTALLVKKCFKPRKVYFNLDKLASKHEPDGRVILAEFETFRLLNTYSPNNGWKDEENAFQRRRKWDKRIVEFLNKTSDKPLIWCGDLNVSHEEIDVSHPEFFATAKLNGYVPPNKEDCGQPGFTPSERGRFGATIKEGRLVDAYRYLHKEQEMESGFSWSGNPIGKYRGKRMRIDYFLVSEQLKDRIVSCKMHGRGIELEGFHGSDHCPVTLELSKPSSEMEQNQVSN

[2] = system: MBP-ROS1 + MBP-APE1L; experiment: EMSA; details: 75 nM MBP-ROS1, 1000 nM MBP-APE1L, higher molecular weight shift than with His-ROS1; 3'-phosphate on S39; 5'-phosphate on S40; 10 mM Tris-HCl pH 8.0, 1 mM DTT, 10 ug/ml BSA; 15 min at 25 C; 10 nM DNA; 0.2% agarose gel in 1x TAE at room temperature; recombinant protein; protein details: MBP,MBP (pMAL-c2X); label: 5' Alexa Fluor on S39
[3] = molecular target: His-ROS1 (Arabidopsis thaliana) (UniProt Q9SJQ6); experiment: EMSA; details: 75 nM His-ROS1, 10 nM DNA, part of probe trapped in wells, 3'-phosphate on S39, 5'-phosphate on S40, 10 mM Tris-HCl pH 8.0, 1 mM DTT, 10 ug/ml BSA, 15 min at 25 C, 0.2% agarose gel in 1x TAE at room temperature, recombinant protein, protein details: His, label: 5' Alexa Fluor on S39
[4] = system: His-ROS1 + MBP-APE1L; experiment: EMSA, supershift; details: 75 nM His-ROS1, 250-1000 nM MBP-APE1L, ternary complex, anti-MBP supershifts, anti-His does not; 3'-phosphate on S39; 5'-phosphate on S40; 10 mM Tris-HCl pH 8.0, 1 mM DTT, 10 ug/ml BSA; 15 min at 25 C; 10 nM DNA; 0.2% agarose gel in 1x TAE at room temperature; recombinant protein; protein details: His,MBP (pMAL-c2X); label: 5' Alexa Fluor on S39

TCACGGGATCAATGTGTTCTTTCAGCTC / GGTCACGCTGACCAGGAATACC / GGTATTCCTGGTCAGCGTGACCGGAGCTGAAAGAACACATTGATCCCGTGA [1-nt gapped duplex (Al-28P + P30_51 / CGR)]
binding result [1]: binds more weakly
binding result [2]: binds
binding result [3]: binds
binding result [4]: binds

For some of these results: Weaker means in comparison with the reference protein, sequence or condition of that experiment. For some of these results: Protein sequences can lack the tags named with them. For some of these results: The exact form of at least one protein or probe is not confirmed.
